Measured values published in PMC11535546.
Changes are numbered by the printed parent chain. These are yes or no findings as the source states them, for the method shown. Binding seen in cells or lysates may run through a third protein. Some entries that bind do so weakly or less than the wild type.

B1: Zyxin, wild type, expressed from pRK5 (protein, UniProt Q15942 1-572)
chain: MAAPRPSPAISVSVSAPAFYAPQKKFGPVVAPKPKVNPFRPGDSEPPPAPGAQRAQMGRVGEIPPPPPEDFPLPPPPLAGDGDDAEGALGGAFPPPPPPIEESFPPAPLEEEIFPSPPPPPEEEGGPEAPIPPPPQPREKVSSIDLEIDSLSSLLDDMTKNDPFKARVSSGYVPPPVATPFSSKSSTKPAAGGTAPLPPWKSPSSSQPLPQVPAPAQSQTQFHVQPQPQPKPQVQLHVQSQTQPVSLANTQPRGPPASSPAPAPKFSPVTPKFTPVASKFSPGAPGGSGSQPNQKLGHPEALSAGTGSPQPPSFTYAQQREKPRVQEKQHPVPPPAQNQNQVRSPGAPGPLTLKEVEELEQLTQQLMQDMEHPQRQNVAVNELCGRCHQPLARAQPAVRALGQLFHIACFTCHQCAQQLQGQQFYSLEGAPYCEGCYTDTLEKCNTCGEPITDRMLRATGKAYHPHCFTCVVCARPLEGTSFIVDQANRPHCVPDYHKQYAPRCSVCSEPIMPEPGRDETVRVVALDKNFHMKCYKCEDCGKPLSIEADDNGCFPLDGHVLCRKCHTARAQT
B2: LIM domain of Zyxin (a.a. 380-572) (domain or fragment, UniProt Q15942 380-572)
chain: VNELCGRCHQPLARAQPAVRALGQLFHIACFTCHQCAQQLQGQQFYSLEGAPYCEGCYTDTLEKCNTCGEPITDRMLRATGKAYHPHCFTCVVCARPLEGTSFIVDQANRPHCVPDYHKQYAPRCSVCSEPIMPEPGRDETVRVVALDKNFHMKCYKCEDCGKPLSIEADDNGCFPLDGHVLCRKCHTARAQT

Columns and labels:
Assay in all cases: co-IP; transfected proteins; cell lysates in MLB (20 mM Tris-HCl, 200 mM NaCl, 1% NP-40, pH 7.5), immunoprecipitation with anti-Flag (M2), anti-Myc or anti-HA, 3 to 4 washes, immunoblot; in some panels with co-expressed TBK1 or Zyxin
[1] = molecular target: T1, TBK1 kinase-dead (K38A), transfected (human) (UniProt Q9UHD2)
T1 sequence: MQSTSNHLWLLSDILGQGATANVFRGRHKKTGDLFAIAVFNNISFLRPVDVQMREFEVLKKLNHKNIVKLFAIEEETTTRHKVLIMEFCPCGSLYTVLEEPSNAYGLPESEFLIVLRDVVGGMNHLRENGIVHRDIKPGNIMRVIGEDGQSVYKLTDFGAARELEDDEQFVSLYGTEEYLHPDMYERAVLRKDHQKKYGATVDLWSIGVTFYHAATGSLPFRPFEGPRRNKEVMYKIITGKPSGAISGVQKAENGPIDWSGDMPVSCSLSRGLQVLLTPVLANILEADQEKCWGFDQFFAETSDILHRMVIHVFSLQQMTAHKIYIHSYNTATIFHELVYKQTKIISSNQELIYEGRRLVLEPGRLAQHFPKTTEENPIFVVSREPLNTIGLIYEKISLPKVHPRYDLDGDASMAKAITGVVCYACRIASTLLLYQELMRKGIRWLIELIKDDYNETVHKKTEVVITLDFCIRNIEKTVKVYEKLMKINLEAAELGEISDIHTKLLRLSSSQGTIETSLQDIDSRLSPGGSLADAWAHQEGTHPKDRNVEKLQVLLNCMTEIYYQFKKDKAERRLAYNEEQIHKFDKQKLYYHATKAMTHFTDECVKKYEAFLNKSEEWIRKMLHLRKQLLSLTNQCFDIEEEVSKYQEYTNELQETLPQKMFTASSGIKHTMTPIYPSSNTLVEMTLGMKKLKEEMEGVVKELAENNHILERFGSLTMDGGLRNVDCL

[2] = molecular target: T2, TBK1, wild-type, transfected (human) (UniProt Q9UHD2)
T2 sequence: T1 sequence with A38K

[3] = molecular target: T3, TBK1 truncation a.a. 1-382 (N-terminal kinase domain and ULD) (human) (UniProt Q9UHD2)
T3 sequence: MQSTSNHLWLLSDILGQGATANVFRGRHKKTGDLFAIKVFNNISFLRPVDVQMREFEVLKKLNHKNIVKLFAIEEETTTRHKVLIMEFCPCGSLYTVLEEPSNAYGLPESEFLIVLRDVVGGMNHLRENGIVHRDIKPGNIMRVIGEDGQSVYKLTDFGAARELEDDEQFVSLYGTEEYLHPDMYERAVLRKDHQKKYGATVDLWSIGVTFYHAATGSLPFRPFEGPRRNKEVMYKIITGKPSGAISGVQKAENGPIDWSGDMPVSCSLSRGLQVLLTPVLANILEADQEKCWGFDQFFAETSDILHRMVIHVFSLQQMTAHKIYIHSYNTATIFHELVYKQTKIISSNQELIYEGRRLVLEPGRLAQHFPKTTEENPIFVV

| Binder | binding [1] | binding [2] | binding [3] |
| --- | --- | --- | --- |
| B1 | binds | binds | binds |
| B2 | – | binds | – |
